Results are given in words; binding and its absence hold for the method and conditions named. Some results given as binding are weak or reduced against the parent protein; the word gives no strength.
Tests used:
human UBR4 (human) [1] = molecular target: human UBR4 (human) (UniProt Q5T4S7); test: mass photometry; isolated human UBR4/KCMF1/CALM1 complex, co-expressed in insect cells and purified via a tag on UBR4; both purified
human UBR4 (human) [2] = molecular target: human UBR4 (human) (UniProt Q5T4S7); test: cryo-EM structure; human UBR4 complex (HsUBR4_(2)/KCMF1_(2)/CALM1_(2)); treatment with EGTA did not affect the CALM1 occupancy; both purified
[3] = molecular target: Arabidopsis thaliana UBR4 (also known as BIG) (Arabidopsis thaliana) (UniProt Q9SRU2); test: cryo-EM structure; complex from co-expression of AtUBR4, AtDI19 and AtCALM1; medium resolution map of the dimerization interface, modelled using AlphaFold3; both purified

Amino acid sequences for entries named in this document (tags omitted).
UniProt Q5T4S7: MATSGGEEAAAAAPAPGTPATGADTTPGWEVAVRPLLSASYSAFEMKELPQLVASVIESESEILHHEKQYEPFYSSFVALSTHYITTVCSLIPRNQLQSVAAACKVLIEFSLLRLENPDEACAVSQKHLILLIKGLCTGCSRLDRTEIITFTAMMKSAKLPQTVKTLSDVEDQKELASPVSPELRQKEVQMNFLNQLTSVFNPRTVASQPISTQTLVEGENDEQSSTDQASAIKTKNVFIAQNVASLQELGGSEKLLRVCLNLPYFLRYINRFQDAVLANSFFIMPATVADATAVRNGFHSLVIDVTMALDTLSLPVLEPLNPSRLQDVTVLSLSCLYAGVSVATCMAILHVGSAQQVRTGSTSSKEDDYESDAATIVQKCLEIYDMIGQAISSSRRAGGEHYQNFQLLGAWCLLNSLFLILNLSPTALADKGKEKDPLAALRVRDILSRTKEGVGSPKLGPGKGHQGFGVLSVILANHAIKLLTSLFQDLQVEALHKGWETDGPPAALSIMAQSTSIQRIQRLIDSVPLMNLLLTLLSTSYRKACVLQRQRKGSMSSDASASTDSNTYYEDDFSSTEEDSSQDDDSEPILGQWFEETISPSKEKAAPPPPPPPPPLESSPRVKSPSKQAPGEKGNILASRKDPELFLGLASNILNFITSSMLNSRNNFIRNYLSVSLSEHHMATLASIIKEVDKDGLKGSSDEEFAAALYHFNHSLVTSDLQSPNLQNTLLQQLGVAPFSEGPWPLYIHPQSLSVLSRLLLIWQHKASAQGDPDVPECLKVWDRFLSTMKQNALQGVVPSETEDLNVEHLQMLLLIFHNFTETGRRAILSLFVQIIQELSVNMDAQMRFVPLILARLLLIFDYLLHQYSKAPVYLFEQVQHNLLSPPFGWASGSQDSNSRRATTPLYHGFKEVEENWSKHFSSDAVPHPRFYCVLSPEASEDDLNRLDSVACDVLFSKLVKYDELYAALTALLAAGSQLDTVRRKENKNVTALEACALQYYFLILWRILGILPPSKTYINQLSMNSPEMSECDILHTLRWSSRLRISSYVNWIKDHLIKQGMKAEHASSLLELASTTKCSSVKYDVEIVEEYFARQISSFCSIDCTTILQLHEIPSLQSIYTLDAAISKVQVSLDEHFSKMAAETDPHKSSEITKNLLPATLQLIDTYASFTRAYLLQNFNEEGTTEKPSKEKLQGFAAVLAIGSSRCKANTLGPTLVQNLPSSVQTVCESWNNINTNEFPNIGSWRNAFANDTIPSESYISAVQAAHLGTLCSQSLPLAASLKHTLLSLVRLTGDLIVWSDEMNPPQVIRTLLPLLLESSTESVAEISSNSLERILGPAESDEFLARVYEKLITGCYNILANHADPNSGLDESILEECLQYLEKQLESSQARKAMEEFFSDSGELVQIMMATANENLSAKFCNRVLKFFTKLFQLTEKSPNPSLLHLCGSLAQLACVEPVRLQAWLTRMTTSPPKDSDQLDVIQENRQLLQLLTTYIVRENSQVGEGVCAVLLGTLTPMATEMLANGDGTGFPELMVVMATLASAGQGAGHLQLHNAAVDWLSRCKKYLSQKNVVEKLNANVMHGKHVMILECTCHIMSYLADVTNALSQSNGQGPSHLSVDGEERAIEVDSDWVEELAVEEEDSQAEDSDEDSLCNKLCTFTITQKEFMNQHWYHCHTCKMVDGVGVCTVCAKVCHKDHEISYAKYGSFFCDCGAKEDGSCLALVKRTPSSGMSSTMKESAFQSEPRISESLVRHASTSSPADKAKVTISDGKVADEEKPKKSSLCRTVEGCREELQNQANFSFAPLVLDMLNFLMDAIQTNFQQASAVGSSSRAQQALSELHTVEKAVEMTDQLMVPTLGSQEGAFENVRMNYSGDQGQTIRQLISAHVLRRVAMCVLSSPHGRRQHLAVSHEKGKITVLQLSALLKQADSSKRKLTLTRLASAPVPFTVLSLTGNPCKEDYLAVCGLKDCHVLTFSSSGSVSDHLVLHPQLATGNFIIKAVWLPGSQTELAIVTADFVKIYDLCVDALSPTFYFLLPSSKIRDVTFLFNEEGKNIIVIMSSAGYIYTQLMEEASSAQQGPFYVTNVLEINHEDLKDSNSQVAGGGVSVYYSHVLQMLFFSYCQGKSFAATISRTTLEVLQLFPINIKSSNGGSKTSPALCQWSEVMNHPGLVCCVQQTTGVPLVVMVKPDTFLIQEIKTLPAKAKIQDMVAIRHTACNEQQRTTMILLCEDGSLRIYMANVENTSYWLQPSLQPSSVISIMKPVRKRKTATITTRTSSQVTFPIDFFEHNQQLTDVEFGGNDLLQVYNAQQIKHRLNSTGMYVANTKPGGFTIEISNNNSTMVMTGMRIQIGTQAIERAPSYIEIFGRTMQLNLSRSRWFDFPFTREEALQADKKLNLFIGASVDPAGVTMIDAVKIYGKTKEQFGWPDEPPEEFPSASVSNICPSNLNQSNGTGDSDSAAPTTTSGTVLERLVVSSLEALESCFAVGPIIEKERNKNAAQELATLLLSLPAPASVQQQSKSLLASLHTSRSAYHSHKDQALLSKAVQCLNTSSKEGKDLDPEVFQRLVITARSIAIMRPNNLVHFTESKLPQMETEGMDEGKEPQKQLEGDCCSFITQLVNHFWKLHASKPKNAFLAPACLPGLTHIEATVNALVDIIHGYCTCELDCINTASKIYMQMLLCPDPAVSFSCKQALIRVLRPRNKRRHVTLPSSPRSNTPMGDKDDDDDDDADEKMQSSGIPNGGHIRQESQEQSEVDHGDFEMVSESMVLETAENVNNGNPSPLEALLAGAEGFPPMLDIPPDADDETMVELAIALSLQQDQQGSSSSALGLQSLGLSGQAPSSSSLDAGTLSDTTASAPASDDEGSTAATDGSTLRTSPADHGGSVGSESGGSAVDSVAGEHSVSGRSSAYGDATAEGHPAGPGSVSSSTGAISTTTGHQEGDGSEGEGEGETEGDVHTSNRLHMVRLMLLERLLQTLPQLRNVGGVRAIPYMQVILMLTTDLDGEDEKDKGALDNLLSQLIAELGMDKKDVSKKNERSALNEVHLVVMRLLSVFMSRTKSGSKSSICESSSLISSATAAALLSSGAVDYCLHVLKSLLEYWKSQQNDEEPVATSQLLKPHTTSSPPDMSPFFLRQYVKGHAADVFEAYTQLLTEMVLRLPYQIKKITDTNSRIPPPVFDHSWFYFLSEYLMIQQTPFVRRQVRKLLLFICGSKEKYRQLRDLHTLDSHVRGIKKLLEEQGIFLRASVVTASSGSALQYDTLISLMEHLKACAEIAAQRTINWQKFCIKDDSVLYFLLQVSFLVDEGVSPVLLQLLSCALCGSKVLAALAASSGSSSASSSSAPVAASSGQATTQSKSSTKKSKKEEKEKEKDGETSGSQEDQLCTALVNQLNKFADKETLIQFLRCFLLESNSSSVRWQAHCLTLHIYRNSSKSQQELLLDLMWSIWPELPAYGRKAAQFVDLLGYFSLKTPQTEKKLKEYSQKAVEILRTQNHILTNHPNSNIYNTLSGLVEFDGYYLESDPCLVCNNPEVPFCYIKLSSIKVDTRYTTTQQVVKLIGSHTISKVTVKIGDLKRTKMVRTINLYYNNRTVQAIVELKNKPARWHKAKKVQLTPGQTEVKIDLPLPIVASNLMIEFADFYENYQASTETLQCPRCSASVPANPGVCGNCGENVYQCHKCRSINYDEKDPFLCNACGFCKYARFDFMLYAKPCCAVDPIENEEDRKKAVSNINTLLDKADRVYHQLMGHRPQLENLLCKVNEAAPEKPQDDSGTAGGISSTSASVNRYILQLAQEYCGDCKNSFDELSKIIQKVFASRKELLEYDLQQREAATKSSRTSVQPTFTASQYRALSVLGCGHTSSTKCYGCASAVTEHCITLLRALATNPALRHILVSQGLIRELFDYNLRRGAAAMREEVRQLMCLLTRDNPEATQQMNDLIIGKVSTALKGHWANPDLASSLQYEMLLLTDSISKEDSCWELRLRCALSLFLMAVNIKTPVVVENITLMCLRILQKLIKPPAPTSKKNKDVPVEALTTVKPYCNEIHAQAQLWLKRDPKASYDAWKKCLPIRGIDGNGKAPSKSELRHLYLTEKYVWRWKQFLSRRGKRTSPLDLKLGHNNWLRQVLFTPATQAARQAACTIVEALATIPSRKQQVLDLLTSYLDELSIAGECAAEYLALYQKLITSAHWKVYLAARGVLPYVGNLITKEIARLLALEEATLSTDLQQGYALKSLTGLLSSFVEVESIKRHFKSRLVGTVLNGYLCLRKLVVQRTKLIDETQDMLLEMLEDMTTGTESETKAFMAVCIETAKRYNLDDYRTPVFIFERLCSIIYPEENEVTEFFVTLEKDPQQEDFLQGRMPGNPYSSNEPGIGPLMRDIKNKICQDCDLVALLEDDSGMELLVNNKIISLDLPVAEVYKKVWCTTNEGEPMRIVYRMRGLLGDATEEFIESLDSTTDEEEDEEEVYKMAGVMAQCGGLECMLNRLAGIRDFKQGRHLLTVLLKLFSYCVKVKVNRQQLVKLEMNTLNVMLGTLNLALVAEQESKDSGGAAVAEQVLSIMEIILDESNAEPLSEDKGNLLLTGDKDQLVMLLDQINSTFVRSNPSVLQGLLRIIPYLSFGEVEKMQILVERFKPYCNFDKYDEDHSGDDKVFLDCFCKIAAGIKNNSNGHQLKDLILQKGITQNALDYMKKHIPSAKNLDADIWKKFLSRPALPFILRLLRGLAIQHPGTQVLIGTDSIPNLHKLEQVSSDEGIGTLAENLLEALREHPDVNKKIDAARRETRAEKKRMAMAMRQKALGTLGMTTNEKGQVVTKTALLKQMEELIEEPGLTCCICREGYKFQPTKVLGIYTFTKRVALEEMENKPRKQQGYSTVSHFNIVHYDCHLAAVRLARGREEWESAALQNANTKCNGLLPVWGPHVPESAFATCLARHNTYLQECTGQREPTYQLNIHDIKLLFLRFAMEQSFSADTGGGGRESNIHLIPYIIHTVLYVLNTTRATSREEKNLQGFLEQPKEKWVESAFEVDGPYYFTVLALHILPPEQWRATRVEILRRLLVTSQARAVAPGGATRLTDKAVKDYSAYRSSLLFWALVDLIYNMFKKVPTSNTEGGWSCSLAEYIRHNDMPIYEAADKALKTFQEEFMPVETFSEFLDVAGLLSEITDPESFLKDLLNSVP
UniProt Q9P0J7: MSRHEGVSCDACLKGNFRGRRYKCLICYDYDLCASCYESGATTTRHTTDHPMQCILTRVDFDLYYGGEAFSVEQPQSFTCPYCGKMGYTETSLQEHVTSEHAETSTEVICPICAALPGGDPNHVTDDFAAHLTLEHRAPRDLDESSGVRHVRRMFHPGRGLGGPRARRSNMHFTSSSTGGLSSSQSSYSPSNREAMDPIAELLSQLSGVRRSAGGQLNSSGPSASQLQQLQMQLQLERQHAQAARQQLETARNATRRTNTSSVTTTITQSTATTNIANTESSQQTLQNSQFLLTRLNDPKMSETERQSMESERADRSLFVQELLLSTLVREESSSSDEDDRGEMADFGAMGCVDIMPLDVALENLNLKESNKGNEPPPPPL

binding (human UBR4 (human) [1]) | binding (human UBR4 (human) [2]) | binding [3] | Substance
binds | binds | – | human KCMF1 (from UniProt Q9P0J7 1-381)
– | binds | – | human UBR4 (from UniProt Q5T4S7 1-5183) (enzyme)
– | – | binds | Arabidopsis thaliana calmodulin 1 (from UniProt P0DH95 1-149)

Source: publication PMC7618180
